In US20240148916A1 (priority 2021, published 2024):

How the values were obtained:
[1] = general procedure: Fmoc solid-phase peptide synthesis; H-Cys(Trt)-2-CT-polystyrene resin; HBTU/HOBt/DIPEA; HATU; conditions: whole synthesis
[2] = general procedure: Fmoc solid-phase peptide synthesis; Fmoc-Cys(Trt) Tentagel resin (RAPP Polymere); H-Cys(Trt)-2-CT-polystyrene resin; HBTU/HOBt/DIPEA; HATU; conditions: conjugation step

Substance | isolated mass [1] | isolated yield ([1]; scale of the general procedure 0.18 mmol) | conjugation yield [2]
Bi-ESV6-Asp-Lys-Asp-Cys-COOH | 36 mg | 4.5% | 
Bi-ESV6-Asp-Lys-Asp-Cys-Fluorescein |  |  | 88%
ESV6-Asp-Lys-Asp-Cys-Fluorescein |  |  | 19.3%
